# Reference: article PMC8384837
# Changes are numbered by the printed parent chain. Some of the results follow.
# Experiments:
# Conditions in all cases: yeast three-hybrid, YBZ-1, SC-Leu-His + 0.5 mM 3-AT, 4 days
# [1] = biological target: T1, PUM1 PUF domain R6-AFL N1043A + Y1044F + Q1047L (Homo sapiens) (UniProt Q14671)
# T1 sequence: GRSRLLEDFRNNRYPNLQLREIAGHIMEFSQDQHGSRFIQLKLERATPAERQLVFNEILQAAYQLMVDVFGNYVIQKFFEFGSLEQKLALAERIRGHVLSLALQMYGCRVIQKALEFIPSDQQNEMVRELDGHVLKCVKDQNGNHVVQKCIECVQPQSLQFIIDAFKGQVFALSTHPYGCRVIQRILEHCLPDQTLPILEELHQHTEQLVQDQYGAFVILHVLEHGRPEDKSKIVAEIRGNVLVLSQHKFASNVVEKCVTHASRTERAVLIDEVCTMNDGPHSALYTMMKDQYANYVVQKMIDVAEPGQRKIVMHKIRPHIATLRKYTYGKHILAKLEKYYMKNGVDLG
# [2] = biological target: T2, PUM1 PUF domain R6-AWV N1043A + Y1044W + Q1047V (Homo sapiens) (UniProt Q14671)
# T2 sequence: T1 sequence with F217W, L220V
# [3] = biological target: T3, PUM1 PUF domain R6-CYL N1043C + Q1047L (Homo sapiens) (UniProt Q14671)
# T3 sequence: T1 sequence with A216C, F217Y
# [4] = biological target: T4, PUM1 PUF domain R6-GFE N1043G + Y1044F + Q1047E (Homo sapiens) (UniProt Q14671)
# T4 sequence: T1 sequence with A216G, L220E
# [5] = biological target: T5, PUM1 PUF domain R6-IFC N1043I + Y1044F + Q1047C (Homo sapiens) (UniProt Q14671)
# T5 sequence: T1 sequence with A216I, L220C
# [6] = biological target: T6, PUM1 PUF domain R6-IFG N1043I + Y1044F + Q1047G (Homo sapiens) (UniProt Q14671)
# T6 sequence: T1 sequence with A216I, L220G
# [7] = biological target: T7, PUM1 PUF domain R6-IFL N1043I + Y1044F + Q1047L (Homo sapiens) (UniProt Q14671)
# T7 sequence: T1 sequence with A216I
# [8] = biological target: T8, PUM1 PUF domain R6-IFS N1043I + Y1044F + Q1047S (Homo sapiens) (UniProt Q14671)
# T8 sequence: T1 sequence with A216I, L220S
# [9] = biological target: T9, PUM1 PUF domain R6-IFT N1043I + Y1044F + Q1047T (Homo sapiens) (UniProt Q14671)
# T9 sequence: T1 sequence with A216I, L220T
# [10] = biological target: T10, PUM1 PUF domain R6-LFA N1043L + Y1044F + Q1047A (Homo sapiens) (UniProt Q14671)
# T10 sequence: T1 sequence with A216L, L220A
# [11] = biological target: T11, PUM1 PUF domain R6-LFG N1043L + Y1044F + Q1047G (Homo sapiens) (UniProt Q14671)
# T11 sequence: T1 sequence with A216L, L220G
# [12] = biological target: T12, PUM1 PUF domain R6-LFT N1043L + Y1044F + Q1047T (Homo sapiens) (UniProt Q14671)
# T12 sequence: T1 sequence with A216L, L220T
# [13] = biological target: T13, PUM1 PUF domain R6-LFV N1043L + Y1044F + Q1047V (Homo sapiens) (UniProt Q14671)
# T13 sequence: T1 sequence with A216L, L220V
# [14] = biological target: T14, PUM1 PUF domain R6-LWE N1043L + Y1044W + Q1047E (Homo sapiens) (UniProt Q14671)
# T14 sequence: T1 sequence with A216L, F217W, L220E
# [15] = biological target: T15, PUM1 PUF domain R6-SRQ N1043S + Y1044R (Homo sapiens) (UniProt Q14671)
# T15 sequence: T1 sequence with A216S, F217R, L220Q
# [16] = biological target: T16, PUM1 PUF domain R6-TWV N1043T + Y1044W + Q1047V (Homo sapiens) (UniProt Q14671)
# T16 sequence: T1 sequence with A216T, F217W, L220V
# [17] = biological target: T17, PUM1 PUF domain R6-VWH N1043V + Y1044W + Q1047H (Homo sapiens) (UniProt Q14671)
# T17 sequence: T1 sequence with A216V, F217W, L220H
# [18] = biological target: T18, PUM1 PUF domain R6-VYC N1043V + Q1047C (Homo sapiens) (UniProt Q14671)
# T18 sequence: T1 sequence with A216V, F217Y, L220C
# [19] = biological target: T19, PUM1 PUF domain R8-KKA N1122K + Y1123K + Q1126A (Homo sapiens) (UniProt Q14671)
# T19 sequence: T1 sequence with A216N, F217Y, L220Q, N295K, Y296K, Q299A
# [20] = biological target: T20, PUM1 PUF domain R8-LYF N1122L + Q1126F (Homo sapiens) (UniProt Q14671)
# T20 sequence: T1 sequence with A216N, F217Y, L220Q, N295L, Q299F
sequence,measurement,setting,value
GGCUAGAACUAGUGGAUCCCCCGGCGCCCGGCGGCUCGAGCCCGGGUAAGUGUAAAUAGUCUGCAUGCCGCCGGGCGCCAUGCCUGCAGGUCGACUCUAGAAAACAUG,binding signal (log2 enrichment (interaction score)),[1],0.25
same,binding signal (log2 enrichment (interaction score)),[2],-0.32
same,binding signal (log2 enrichment (interaction score)),[3],-1.23
same,binding signal (log2 enrichment (interaction score)),[4],-4.53
same,binding signal (log2 enrichment (interaction score)),[5],0.76
same,binding signal (log2 enrichment (interaction score)),[6],-1.44
same,binding signal (log2 enrichment (interaction score)),[7],-1
same,binding signal (log2 enrichment (interaction score)),[8],-0.18
same,binding signal (log2 enrichment (interaction score)),[9],-3.69
same,binding signal (log2 enrichment (interaction score)),[10],-2.29
same,binding signal (log2 enrichment (interaction score)),[11],0.63
same,binding signal (log2 enrichment (interaction score)),[12],0.13
same,binding signal (log2 enrichment (interaction score)),[13],-1.01
same,binding signal (log2 enrichment (interaction score)),[14],0.83
same,binding signal (log2 enrichment (interaction score)),[15],-0.69
same,binding signal (log2 enrichment (interaction score)),[16],0.59
same,binding signal (log2 enrichment (interaction score)),[17],-4.25
same,binding signal (log2 enrichment (interaction score)),[18],-0.93
same,binding signal (log2 enrichment (interaction score)),[19],1.55
same,binding signal (log2 enrichment (interaction score)),[20],0.65

# An excerpt of these results, bar-delimited.
sequence | measurement | setting | value
GGCUAGAACUAGUGGAUCCCCCGGCGCCCGGCGGCUCGAGCCCGGGUAAGUGUAAAUAGUCUGCAUGCCGCCGGGCGCCAUGCCUGCAGGUCGACUCUAGAAAACAUG | binding signal (log2 enrichment (interaction score)) | [6] | -1.44
same | binding signal (log2 enrichment (interaction score)) | [18] | -0.93
